This test has as its target Tspan15 (human (endogenous in HEK-293T)), O95858. As to the kind of experiment: affinity purification with mass spectrometry. Particulars: remark: other sources report otherwise.

No constants are given. Whether binding was seen depends on the method and setting. In cells and extracts the contact can be indirect. These calls come from enrichment with a bait or labelling near it, and not all partners need be listed. A no says only that the protein was not detected with the bait.

B1: beta-transducin repeat containing E3 ubiquitin protein ligase (BTRC), Q9Y297 1-605 (protein)
chain: MDPAEAVLQEKALKFMCSMPRSLWLGCSSLADSMPSLRCLYNPGTGALTAFQNSSEREDCNNGEPPRKIIPEKNSLRQTYNSCARLCLNQETVCLASTAMKTENCVAKTKLANGTSSMIVPKQRKLSASYEKEKELCVKYFEQWSESDQVEFVEHLISQMCHYQHGHINSYLKPMLQRDFITALPARGLDHIAENILSYLDAKSLCAAELVCKEWYRVTSDGMLWKKLIERMVRTDSLWRGLAERRGWGQYLFKNKPPDGNAPPNSFYRALYPKIIQDIETIESNWRCGRHSLQRIHCRSETSKGVYCLQYDDQKIVSGLRDNTIKIWDKNTLECKRILTGHTGSVLCLQYDERVIITGSSDSTVRVWDVNTGEMLNTLIHHCEAVLHLRFNNGMMVTCSKDRSIAVWDMASPTDITLRRVLVGHRAAVNVVDFDDKYIVSASGDRTIKVWNTSTCEFVRTLNGHKRGIACLQYRDRLVVSGSSDNTIRLWDIECGACLRVLEGHEELVRCIRFDNKRIVSGAYDGKIKVWDLVAALDPRAPAGTLCLRTLVEHSGRVFRLQFDEFQIVSSSHDDTILIWDFLNDPAAQAEPPRSPSRTYTYISR
As for B1, the binding result is recorded as “no binding”.

These data come from paper doi:10.1101/800557.
